PubChem BioAssay AID1671195, Yale University | 2021
Assay: 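Regulators of LDL receptor activity judged by labelled LDL uptake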 (primary screen). Cell system: human Huh7 hepatoma cells. Reagent: siRNA pool against human genes, 18 nM. Timing: about 2 to 2.5 days of knockdown, then 8 h LDL uptake. Challenge: DiI-labelled LDL at 30 µg/ml for 8 h, in lipoprotein-deficient serum medium. Detection: 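Fluorescent LDL signal imaged in cells, scaled to the plate median, robust z-score for each replicate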. Reading the numbers: robust z-score: higher = more LDL uptake after knockdown. Call rule: 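Active when two or more replicates show a robust z-score above 2 or below -2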.
This is an unselected part of about 22,000 reagents. Over the whole deposit, about 1,510 (6.9%) are marked active. 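Active includes knockdowns raising or lowering LDL uptake; positive z-scores mean more uptake, negative mean less.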

gene symbol,"robust z-score, replicate 1","robust z-score, replicate 2","robust z-score, replicate 3",call
GVQW3,0.642,0.379,0.502,inactive
ZNF154,-0.612,-0.384,-1.16,inactive
HLA-F,-0.53,-0.615,-0.63,inactive
XPO6,-2.18,-0.308,-1.56,inactive
APC,0.86,0.764,2.09,inactive
PAQR6,-1.02,-0.763,-1.08,inactive
NPY4R,-1.64,-1.31,-1.63,inactive
PPP1R13B,0.527,0.763,0.608,inactive
TGM4,-0.5,-0.107,0.225,inactive
UTS2,1.7,1.54,-0.386,inactive
UBE2E1,0.683,1.45,0.145,inactive
OLAH,0.532,-0.0445,0.123,inactive
SRP14P1,-0.456,-0.832,-0.592,inactive
MTFR1,-0.179,-0.169,-0.67,inactive
RRAGD,-1.07,0.106,-0.603,inactive

Entries above whose gene name begins with U or u:
gene symbol,"robust z-score, replicate 1","robust z-score, replicate 2","robust z-score, replicate 3",call
UTS2,1.7,1.54,-0.386,inactive
UBE2E1,0.683,1.45,0.145,inactive

Continued:
gene symbol,"robust z-score, replicate 1","robust z-score, replicate 2","robust z-score, replicate 3",call
MACO1,-0.293,-0.381,-0.312,inactive
ERCC1,-1.23,-0.935,-0.889,inactive
PROKR2,1.3,0.418,0.226,inactive
CTDSP1,0.848,1.06,1.2,inactive
ANO9,-1.21,-1.23,-1.55,inactive
ASIC4,-0.57,-0.849,-0.662,inactive
ARHGDIB,-0.156,-0.292,0.102,inactive
LOC440334 (retired record),0.596,0.614,0.176,inactive
UTS2R,0.559,0.275,0.639,inactive
TRIAP1,0.243,1.27,-0.545,inactive
PTPN1,0.802,0.809,1.4,inactive
TAF15,-0.822,-0.625,-0.85,inactive
AHCYL1,-0.466,-0.963,-0.891,inactive
LOC338825 (retired record),-0.503,-0.478,-0.507,inactive
HOXB4,-1.56,-1.51,-1.47,inactive
CDCA7L,-1.41,0.197,-1.39,inactive
ENPP3,0.175,-0.0763,-0.371,inactive
MORF4L2,-0.757,-0.489,1.65,inactive
TWF2,-0.572,0.0688,-0.257,inactive
CHD9,1.22,0.966,0.857,inactive
GPT2,-0.0558,1.18,-0.157,inactive
KIF20B,-0.853,0.81,0.383,inactive
RPL7AP32,0.204,-0.936,0.288,inactive
PLXDC1,0.199,0.982,1.13,inactive
LOC343052,-0.168,-0.251,0.00834,inactive
CCNT1,0.379,0.744,1.36,inactive
OR1S1,0.781,0.49,0.857,inactive
PTCHD3P1,-0.632,-0.169,-0.354,inactive
CERS6,0.776,0.458,0.433,inactive
IBA57,-0.0275,0.0167,0.19,inactive
LOC150371 (retired record),-1.29,-1.66,-1.35,inactive
